In patent US20100303812A1 (SMART TARGETING, published 2010) one finds binding data, which are given here for one molecule.

The chains behind the UniProt entries cited, without tags or fusion partners. Where a name states a change or a piece, a line headed by the entry shows the natural chain unless it says otherwise.
UniProt Q9NR61: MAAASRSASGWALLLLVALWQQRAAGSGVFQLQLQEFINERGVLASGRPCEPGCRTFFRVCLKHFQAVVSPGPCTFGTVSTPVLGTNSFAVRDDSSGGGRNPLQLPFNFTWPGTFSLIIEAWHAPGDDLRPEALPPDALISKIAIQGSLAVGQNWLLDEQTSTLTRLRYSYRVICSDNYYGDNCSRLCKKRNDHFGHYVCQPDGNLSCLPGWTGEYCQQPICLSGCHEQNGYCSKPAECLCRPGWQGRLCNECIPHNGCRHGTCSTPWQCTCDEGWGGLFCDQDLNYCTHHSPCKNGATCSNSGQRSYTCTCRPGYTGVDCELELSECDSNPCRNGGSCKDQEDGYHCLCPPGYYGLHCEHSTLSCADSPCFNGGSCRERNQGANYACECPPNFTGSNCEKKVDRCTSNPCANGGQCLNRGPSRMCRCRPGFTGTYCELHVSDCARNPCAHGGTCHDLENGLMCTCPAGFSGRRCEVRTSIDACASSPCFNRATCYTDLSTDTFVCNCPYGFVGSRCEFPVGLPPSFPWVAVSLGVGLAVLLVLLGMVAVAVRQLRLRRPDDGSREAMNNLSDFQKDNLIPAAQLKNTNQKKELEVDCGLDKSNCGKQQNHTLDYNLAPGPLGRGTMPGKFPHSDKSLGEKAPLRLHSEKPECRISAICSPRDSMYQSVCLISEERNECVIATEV

For this assay, the target named is T1, pure recombinant Dll4 (human, UniProt Q9NR61 27-524).
T1 construct: also called recombinant DLL4 ligand; immobilized Dll4
Briefly: Biacore A100, antibody over immobilized recombinant Dll4. (In general: Surface plasmon resonance follows binding to a sensor surface in real time, without labels.)

Results are given in words; binding and its absence hold for the method and conditions named. Some binding calls cover weakened binding; strength is not graded here.

B1: cSTL4 (antibody, V domains shown)
VH: EVQLQQSGPELVKPGASVKMSCKASGYTFTSYVMHWVKQKPGQGLEWIGYIIPYNDGTKYNEKFKGKATLTSDKSSSTAYMELSSLTSEDSAVYYCARSEDYDHFDYWGQGTTVTVSS
VL: QIVLSQSPVILSASPGEKVTMTCRASSSVSFMHWYQQKPGSSPKPWIYATSNLTSGVPTRFSGSGSGTSYSLTISRVEAEDAATYYCQQWSSNPFTFGSGTKLEIKR
notes: Chimeric form of STL4: mouse VH and VL fused to human IgG heavy and kappa constant regions, expressed from pCAcc vectors; also called chimeric anti-Dll4 antibody; chimeric antibody; not shown: human IgG heavy constant region CH1-H-CH2-CH3; human immunoglobulin kappa light chain constant region
For B1, the binding result is given as “binds”.
